In publication PMC9982555:
These are yes or no findings as the source states them, for the method shown. Binding seen in cells or lysates may run through a third protein. Some results given as binding are weak or reduced against the parent protein; the word gives no strength.

Protein sequences, listed by entry. Tags and fused reporters are not part of them. Residues count along the entry.
UniProt P21796: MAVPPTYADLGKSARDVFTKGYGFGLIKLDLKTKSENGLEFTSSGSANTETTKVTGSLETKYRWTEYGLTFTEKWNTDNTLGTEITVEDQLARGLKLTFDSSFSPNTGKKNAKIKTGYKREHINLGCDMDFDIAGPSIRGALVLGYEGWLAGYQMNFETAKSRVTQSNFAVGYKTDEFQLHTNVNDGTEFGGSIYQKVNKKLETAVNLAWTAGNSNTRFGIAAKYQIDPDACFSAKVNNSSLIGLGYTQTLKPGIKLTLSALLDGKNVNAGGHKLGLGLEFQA
UniProt Q8NE86, residues 51-351: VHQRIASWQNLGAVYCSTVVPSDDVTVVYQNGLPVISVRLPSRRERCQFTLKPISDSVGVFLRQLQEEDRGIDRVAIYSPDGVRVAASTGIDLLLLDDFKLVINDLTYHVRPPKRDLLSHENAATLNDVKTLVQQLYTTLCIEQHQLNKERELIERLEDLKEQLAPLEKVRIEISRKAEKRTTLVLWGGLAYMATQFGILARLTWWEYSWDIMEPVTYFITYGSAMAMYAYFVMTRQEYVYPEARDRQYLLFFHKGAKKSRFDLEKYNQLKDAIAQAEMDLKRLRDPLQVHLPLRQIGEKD

Experiments:
[1] = target: HA-VDAC1 (voltage-dependent anion-selective channel protein 1 fused with an HA tag) (human) (UniProt P21796); experiment: co-IP; MCU, HA or isotype IgG antibody (5 µg) on protein A/G magnetic beads, incubated with 0.5-1.0 mg protein from HA-VDAC1-overexpressing HepG2 cells (SDS-free lysis buffer) for 12-18 h at 4 °C; immunoblot; cells treated with siMCU or siVDAC1, with or without Cd exposure
VDAC1-ECFP = VDAC1-ECFP (UniProt P21796); experiment: FRET or BRET; acceptor photobleaching FRET in living HepG2 cells cotransfected with VDAC1-ECFP (donor) and MCU-EYFP (acceptor) for 48 h; EYFP bleached at 514 nm; efficiency normalized to ECFP+MCU-EYFP
[2] = target: Mitochondrial calcium uniporter (MCU) (human (endogenous in HepG2)) (UniProt Q8NE86); experiment: co-IP; MCU, HA or isotype IgG antibody (5 µg) on protein A/G magnetic beads, incubated with 0.5-1.0 mg protein from HA-VDAC1-overexpressing HepG2 cells (SDS-free lysis buffer) for 12-18 h at 4 °C; immunoblot; cells treated with siMCU or siVDAC1, with or without Cd exposure

## Mitochondrial calcium uniporter (MCU) (from UniProt Q8NE86 51-351)
[1]
  binding: binds

## MCU-EYFP (from UniProt Q8NE86 51-351)
VDAC1-ECFP
  binding: binds

## HA-VDAC1 (voltage-dependent anion-selective channel protein 1 fused with an HA tag) (from UniProt P21796 1-283)
[2]
  binding: binds
